# In patent publication US7550509B2, “Carisoprodol articles and methods” (Mutual Pharmaceutical Company, Inc., priority 2006, dated 2009):
# At least one read-out could not be matched to a standard name with certainty.
# Experiment: Biostudy of carisoprodol (SOMA®) pharmacokinetics under non-fasted and fasted conditions, randomized single-dose two-way crossover
# Format: in vivo, human (healthy adults)
# Conditions: meprobamate as a metabolite of carisoprodol; non-fasted compared to fasted
# Protocol: A biostudy was conducted under fasted and non-fasted conditions.
# The dosage form is administered with 240 ml of water during the fasting period, and water can be allowed ad libitum after 2 hours.
# As used herein, for the purposes of biostudy and the determination of bioequivalence, a non-fasted patient is defined as a patient who fasts for at least 10 hours overnight and then consumes an entire test meal within 30 minutes of first ingestion. The dosage form is administered with 240 mL of water at 30 minutes after first ingestion of the meal. No food is then allowed for at least 4 hours post-dose. Water can be allowed ad libitum after 2 hours. […]
# The study was designed as a randomized, single-dose two-way crossover to compare the pharmacokinetic parameters of SOMA®. […] The samples were then analyzed for carisoprodol and meprobamate.
# The following pharmacokinetic parameters may be determined from the plasma concentration data:
# The area under the plasma concentration versus time curve [AUCt] may be calculated using the linear trapezoidal rule from the zero time point to the last measured concentration.
# The area under the plasma concentration versus time curve from zero to infinity [AUC0-INF] may be calculated by adding Ct/Kelm to AUC where Ct is the last measured concentration and Kelm is the elimination rate constant. […]
# The half-life [T1/2] may be calculated by the equation T1/2=0.693/Kelm.
compound,measurement,value
CCCC(C)(COC(N)=O)COC(N)=O [meprobamate],effect of food on Cmax and AUC / pharmacokinetic profile (in words),substantially unchanged
